PubChem BioAssay AID743121, NCATS – 2013
Shown is a random part of about 26,000 reagents. Over the whole deposit, 167 (0.63%) are marked active. 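Calls are per gene from RSA p-values that are not deposited; an individual active-marked siRNA can sensitise only weakly.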 Entries without a mark were called inactive. Reagents against one gene are numbered here.

Purpose: 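Genes whose silencing strengthens cell killing by camptothecin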 (primary screen)
Cells: MDA-MB-231 cells, a human breast cancer line
Knock-down reagent: single siRNA against human genes, 20 nM siRNA (0.8 pmol per well)
Time to read-out: 120 h (drug added 48 h after transfection, read 72 h later)
Treatment: camptothecin 20 nM (about EC30) for 72 h; vehicle 0.1% DMSO in parallel plates
Read-out: 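CellTiter-Glo ATP signal, scaled to control siRNA as percent viability; sensitisation given as log2 of untreated divided by camptothecin-treated viability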
Reading the numbers: log2 vehicle/camptothecin viability: higher = stronger sensitisation to camptothecin; viability with camptothecin and viability without drug: higher = more viable cells
Call rule: 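Each gene scored by redundant siRNA activity (RSA) over its individual siRNA ratios; a gene is called active at p < 0.001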

Gene	reagent	log2 vehicle/camptothecin viability	viability with camptothecin (% of control)	viability without drug (% of control)
CSNK1D	1	1.38	15.4	40
CSNK1D	2	0.0469	57.9	59.8
CSNK1D	3	-0.296	78.7	64.1
CSNK1D	4	-0.204	110	95.4
TERT	1	0.0705	40	42
TERT	2	0.555	63.2	92.9
TERT	3	-0.415	62.8	47.1
TERT	4	0.178	63	71.3
IFNA13	1	0.232	72	84.6
IFNA13	2	-0.228	85.7	73.2
BRAP	1	-0.194	102	89.3
BRAP	2	-0.429	77.9	57.9
BRAP	3	-0.286	94.5	77.5
BRAP	4	-0.0361	60.6	59.1
TNFSF8	1	0.718	13.6	22.4
TNFSF8	2	0.066	70.6	74
TNFSF8	3	-0.226	79.8	68.3
TNFSF8	4	-0.385	89.6	68.6
KEL	1	-0.0985	79.3	74.1
KEL	2	0.985	33.8	66.9
KEL	3	-0.182	110	96.7
KEL	4	-0.169	79.5	70.7
AFG3L2	1	-0.232	112	95.4
AFG3L2	2	-0.395	5.18	3.94
AFG3L2	3	-0.135	55.9	50.9
AFG3L2	4	-0.272	85.9	71.1
DDX20	1	-0.0967	93.1	87
DDX20	2	-0.58	72.2	48.3
DDX20	3	-0.222	34.3	29.4

Quoted from above (2 entries):
Gene	reagent	log2 vehicle/camptothecin viability	viability with camptothecin (% of control)	viability without drug (% of control)
KEL	1	-0.0985	79.3	74.1
KEL	2	0.985	33.8	66.9
